{"source": "paper doi:10.1101/2023.11.01.565146", "molecules": {"B1": {"name": "GST-Mlph-ΔRBD (residues 148-590) (domain or fragment, UniProt Q91V27 148-590)", "chain": "GGGSEPSLEEGNGDSEQTDEDGDLDTEARDQPLNSKKKKRLLSFRDVDFEEDSDHLVQPCSQTLGLSSVPESAHSLQSLSGEPYSEDTTSLEPEGLEETGARALGCRPSPEVQPCSPLPSGEDAHAELDSPAASCKSAFGTTAMPGTDDVRGKHLPSQYLADVDTSDEDSIQGPRAASQHSKRRARTVPETQILELNKRMSAVEHLLVHLENTVLPPSAQEPTVETHPSADTEEETLRRRLEELTSNISGSSTSSEDETKPDGTFLGGSPKVCTDTGHMETQERNPRSPGNPARPTKSTDEELSEMEDRVAMTASEVQQAESEISDIESRIAALRAAGLTVKPSGKPRRKSGIPIFLPRVTEKLDRIPKTPPADPDDQAKMPKATTAVPSLLRRKYSPSSQGVDSGSFDRKSVYRGSLTQRNPNGRRGTARHIFAKPVMAQQP"}}, "key": {"[1]": {"biological_target": "T1, GST-Mlph-ABD (the GST-tagged ABD of Mlph, residues 401-590) (mouse) (UniProt Q91V27)", "T1 sequence": "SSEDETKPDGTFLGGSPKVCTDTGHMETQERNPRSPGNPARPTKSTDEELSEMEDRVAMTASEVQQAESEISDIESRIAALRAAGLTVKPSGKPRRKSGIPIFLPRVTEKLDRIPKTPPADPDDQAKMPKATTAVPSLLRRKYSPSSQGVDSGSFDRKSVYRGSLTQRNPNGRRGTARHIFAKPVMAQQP", "assay": "pull-down"}, "[2]": {"biological_target": "T2, GST-Mlph-ABD R568A (mouse) (UniProt Q91V27)", "T2 sequence": "T1 sequence with R168A", "assay": "pull-down"}, "[3]": {"biological_target": "T3, GST-Mlph-ΔRBD (residues 148-590) (mouse) (UniProt Q91V27)", "T3 sequence": "B1 chain", "assay": "pull-down"}, "[4]": {"biological_target": "T4, GST-Mlph-ABD E454A (mouse) (UniProt Q91V27)", "T4 sequence": "T1 sequence with E54A", "assay": "pull-down"}, "[5]": {"biological_target": "T5, GST-Mlph-ABD D447A (mouse) (UniProt Q91V27)", "T5 sequence": "T1 sequence with D47A", "assay": "pull-down"}, "[6]": {"biological_target": "T6, Flag-Mlph-EFBD (residues 241-400) (mouse) (UniProt Q91V27)", "T6 sequence": "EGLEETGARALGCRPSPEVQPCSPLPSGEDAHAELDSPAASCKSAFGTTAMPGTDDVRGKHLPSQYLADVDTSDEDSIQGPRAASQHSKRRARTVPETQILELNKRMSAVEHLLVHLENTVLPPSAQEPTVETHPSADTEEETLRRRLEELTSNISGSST", "assay": "pull-down"}, "[7]": {"biological_target": "T7, GST-Mlph-ABD R562A (mouse) (UniProt Q91V27)", "T7 sequence": "T1 sequence with R162A", "assay": "pull-down"}, "[8]": {"biological_target": "T8, Mlph-EFBD (as used in Figure 2C) (mouse) (UniProt Q91V27)", "T8 sequence": "T6 sequence", "assay": "pull-down"}, "[9]": {"biological_target": "T1, GST-Mlph-ABD (the GST-tagged ABD of Mlph, residues 401-590) (mouse)", "assay": "pull-down", "remark": "listed apart in the source"}, "[10]": {"biological_target": "T9, GST-Mlph-ABD E452A (mouse) (UniProt Q91V27)", "T9 sequence": "T1 sequence with E52A", "assay": "condition: 4 µM Myo5a-MTD, 2 µM GST-Mlph-ABD construct"}, "[11]": {"biological_target": "T10, GST-Mlph-ABD E449A (mouse) (UniProt Q91V27)", "T10 sequence": "T1 sequence with E49A", "assay": "condition: 4 µM Myo5a-MTD, 2 µM GST-Mlph-ABD construct"}, "[12]": {"biological_target": "T1, GST-Mlph-ABD (the GST-tagged ABD of Mlph, residues 401-590) (mouse)", "assay": "condition: 4 µM Myo5a-MTD truncation, 2 µM GST-Mlph-ABD"}, "[13]": {"biological_target": "Flag-Myo5a-MTD (residues 1106-1467), bacterial-expressed", "assay": "pull-down"}}, "note": "Positions count from the first letter of the chain named. No constants are given. Whether binding was seen depends on the method and setting. For some assays here: Binding can be weak; no strength is given. For some assays here: Sequences can lack the tags named with a protein."}
{"molecule": "Flag-Myo5a-MTDΔF (domain or fragment)", "values": [{"measurement": "binding", "setting": "[1]", "result": "binds"}]}
{"molecule": "Flag-Trx-Myo5a (1411-1467) (domain or fragment)", "values": [{"measurement": "binding", "setting": "[1]", "result": "binds"}]}
{"molecule": "Flag-Myo5a-MTD (residues 1106-1467), bacterial-expressed (domain or fragment)", "values": [{"measurement": "binding", "setting": "[1]", "result": "binds"}, {"measurement": "binding", "setting": "[2]", "result": "binds"}, {"measurement": "binding", "setting": "[3]", "result": "binds"}, {"measurement": "binding", "setting": "[4]", "result": "binds"}, {"measurement": "binding", "setting": "[5]", "result": "binds"}, {"measurement": "binding", "setting": "[6]", "result": "binds"}, {"measurement": "binding", "setting": "[7]", "result": "binds"}, {"measurement": "binding", "setting": "[8]", "result": "binds"}, {"measurement": "binding", "setting": "[9]", "result": "binds"}, {"measurement": "binding", "setting": "[10]", "result": "no binding"}, {"measurement": "binding", "setting": "[11]", "result": "no binding"}]}
{"molecule": "Flag-Myo5a-MTDΔG (domain or fragment)", "values": [{"measurement": "binding", "setting": "[8]", "result": "binds"}, {"measurement": "binding", "setting": "[12]", "result": "no binding"}]}
{"molecule": "Flag-Trx-Myo5a (1436-1467) (domain or fragment)", "values": [{"measurement": "binding", "setting": "[9]", "result": "binds weakly"}]}
{"molecule": "B1", "values": [{"measurement": "binding", "setting": "[13]", "result": "binds"}]}
